From PubChem BioAssay AID2685 (National Center for Advancing Translational Sciences (NCATS), 2010) come the findings set out here.

The assay is described as follows: qHTS Assay for Lipid Storage Modulators in Drosophila S3 Cells.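 As to cell number change: cells counted by Cell Tracker Red CMTPX staining in the red channel.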 To be noted: BODIPY lipid droplet fluorescence, 18-24 h; for cell number change: measured here: cell count max response, cells fed with added oleic acid. A digest of the protocol:
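Laser-scanning cytometry quantifies lipid droplet accumulation (500–530 nm total intensity; droplet/cell object ratio) in oleic acid-fed (400 uM added) Drosophila S3 cells treated with a concentration series. 20 uM Triacsin C defined 100% inhibition.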
(qHTS replaces the single test concentration by a dilution series.)

[1] abbreviates: measured here: cell number channel AC50, cells fed with added oleic acid.
Where [2] appears, read: measured here: lipid fluorescence (Fed channel) AC50, cells fed with added oleic acid.

For orientation: AC50 means the concentration giving half of the maximal activity seen. A high value points to weaker potency.

This is one part of the list. Further columns of the screen follow, without active or inactive calls. Compounds called inactive in the main read-out are mostly missing here. Potencies come from curve fits of mixed quality, noted in brackets.

On to `CCOC(=O)c1c(NC(=O)c2cccs2)sc(CC)c1-c1cccs1`, for which the AC50 under setting [1] was 1.64 µM [rising, partial curve] and the AC50 under setting [2] was 23.1 µM [rising, partial curve].
On to `CCNC(=O)NC(=O)C(C)OC(=O)c1oc2ccc(OC)cc2c1C` (stereo unspecified), for which the AC50 under setting [2] was 4.11 µM [rising, partial curve].
Turning to `COc1ccc(N2CCN(CCCNC(=O)CC3Oc4ccc(C)cc4NC3=O)CC2)cc1` (stereo unspecified), the cell number change is -51.2%. Moreover, the AC50 under setting [1] is 13 µM [falling, partial curve].
As to `CCn1cc(C(=O)NCc2ccc(OC)cc2)c(=O)c2ccc(C)nc21`, the cell number change worked out at 13.1%.
For the molecule `Cc1ccc(C)c(OCC(=O)NNC(=O)CCN2CCN(c3ccccc3)CC2)c1`, the cell number change was -18.7%. The AC50 under setting [2] is 0.0058 µM [rising, full curve, poor fit].
As for `COc1ccccc1-c1noc(CCCC(=O)NC2CCCC2)n1`, the cell number change is -22.9%.
For the molecule `Fc1cc(Br)ccc1NC(=S)Nc1cccnc1`, the cell number change amounted to 32.7%. The AC50 under setting [1] is 0.184 µM [rising, full curve, poor fit]. Also, the AC50 under setting [2] was 0.231 µM [rising, full curve, poor fit].
Regarding `C=C(C)Cn1c(CN(C)Cc2ccccc2)nc2c1c(=O)n(C)c(=O)n2C`, the AC50 under setting [2] is 0.731 µM [falling, full curve].
On the same count and under the same terms, the figure for `CCCS(=O)(=O)N1CCN(C(=O)c2ccc(-c3ccccc3)cc2)CC1` is 10.3 µM [rising, partial curve].
For the molecule `COc1cccc(/C=N/NC(N)=S)c1OCc1ccccc1Cl`, the cell number change was -39.1%. Further, under setting [1], the AC50 was 13 µM [falling, partial curve]. Under setting [2], the AC50 was 3.66 µM [falling, full curve].
Regarding `C=CCSc1nc2ccccc2n1C(=O)/C=C/c1ccc(OC)c(OC)c1`, the cell number change was -19%. In addition, the AC50 under setting [2] was 0.731 µM [falling, full curve].
As to `O=C(NCCCCNC(=O)c1ccccn1)c1ccccn1`, the cell number change came out at 15%. For the same molecule, the half-maximal activity concentration (AC50) under setting [2] was 0.82 µM [rising, full curve, poor fit].
Consider `O=C(O)c1ccccc1Nc1ccc([N+](=O)[O-])c2nonc12`, for which the cell number change was -81.6%. Besides, the AC50 under setting [1] was 29.1 µM [falling, single point]. The AC50 under setting [2] is 23.1 µM [falling, single point].
As to `COc1cc(C(=O)NCc2nnc(SCC(=O)N3CCCCC3)o2)cc(OC)c1OC`, the AC50 under setting [2] is 20.6 µM [falling, partial curve].
As to `O=C(CCC(=O)OCC(F)(F)C(F)F)NCc1ccccc1`, the cell number change is -27.6%. In addition, the AC50 under setting [1] was 4.11 µM [falling, full curve, poor fit]. For the same molecule, the AC50 under setting [2] is 5.8 µM [falling, single point].
Turning to `CC(C)c1nnc(NC(=O)CCC(=O)N2CCN(C3CCCCC3)CC2)s1`, the cell number change is -65.9%. In addition, the AC50 under setting [1] is 5.17 µM [falling, partial curve, poor fit]. The AC50 under setting [2] was 6.51 µM [falling, partial curve].
With `COc1ccc(CCNC(=O)c2coc3ccccc3c2=O)cc1`, the cell number change worked out at 15%. Under setting [2], the AC50 is 6.51 µM [rising, partial curve, poor fit].
Consider `COc1ccc(NC(=O)C2=C(C)Nc3ncnn3C2c2ccccc2C(F)(F)F)c(OC)c1` (stereo unspecified), for which the cell number change is -1.19%. Under setting [2], the AC50 was 20.6 µM [rising, single point].
Turning to `CCN1CCN(P2(=O)C=C(c3ccccc3)OC(c3ccccc3)=C2)CC1`, the cell number change came to 10.1%. In addition, under setting [2], the AC50 is 5.8 µM [falling, partial curve, poor fit].
For `COc1ccc(CCNC(=O)c2ccc(CNS(=O)(=O)c3cc(C)ccc3C)cc2)cc1OC`, the cell number change is -0.536%. Further, the half-maximal activity concentration (AC50) under setting [2] is 18.4 µM [falling, partial curve].
With `CC(NC(=O)c1sc2cc([N+](=O)[O-])ccc2c1Cl)C(C)(C)C` (stereo unspecified), the cell number change was -24.1%.
For `O=C1CC(=C(c2ccccc2)c2ccccc2)C(=O)N1CCCN1CCN(c2cccc(Cl)c2)CC1`, the cell number change came out at 6.26%. The AC50 under setting [2] is 10.3 µM [falling, partial curve].
Turning to `Brc1ccc(/C=N/Nc2ccc3ccccc3n2)cc1`, the cell number change was -53.5%. The AC50 under setting [1] was 23.1 µM [falling, partial curve]. Besides, under setting [2], the AC50 is 18.4 µM [falling, partial curve].
As to `O=C(Nc1ccc(Cl)cc1)c1cc(-c2cccs2)on1`, the cell number change was 41.2%. For the same molecule, the AC50 under setting [1] was 0.092 µM [rising, full curve, poor fit]. In addition, the AC50 under setting [2] was 16.4 µM [rising, partial curve, poor fit].
Consider `O=C(NCCNc1ccc([N+](=O)[O-])cc1)c1cccc2c(Br)cccc12`, for which the cell number change was 4.42%. In addition, under setting [2], the AC50 was 6.51 µM [rising, partial curve, poor fit].
In the case of `Cc1ccc(NC(=O)c2cc(S(=O)(=O)N3CCCCC3)ccc2N2CCOCC2)cc1F`, the cell number change is 18.4%. Moreover, under setting [1], the AC50 was 1.64 µM [rising, partial curve, poor fit]. Also, the AC50 under setting [2] is 6.51 µM [rising, single point].
Take `COc1ccc(OCc2nnc(SCC(N)=O)n2-c2ccccc2OC)cc1`: the cell number change stood at 12.9%. Further, the AC50 under setting [2] was 29.1 µM [rising, single point].
As to `COc1ccc2[nH]c(C(=O)Nc3cccc(C)n3)cc2c1`, the cell number change was -6.12%. For the same molecule, the AC50 under setting [2] is 18.4 µM [falling, partial curve].
In the case of `CC(C)(C)OC(=O)N[C@@H](COCc1ccccc1)C(=O)N[C@@H](CO)[C@H](O)[C@@H]1C[C@@H]1C(=O)NC1CCCCC1`, the cell number change was 11.1%.
In the case of `C/C(CC(=O)Nc1ccccn1)=N\NC(=O)c1ccc([N+](=O)[O-])cc1Cl`, the cell number change came out at 0.435%. Also, the AC50 under setting [2] is 6.51 µM [falling, single point].
Take `CC1(C)Cc2c(cnn2-c2cccc(F)c2)C(NC(=O)c2csnn2)C1` (stereo unspecified): the cell number change was -18.1%. In addition, the AC50 under setting [2] is 0.146 µM [falling, full curve].
Turning to `O=C(NCC1CC1)Nc1ccc(Cl)cc1`, the cell number change is -4.17%. Moreover, the AC50 under setting [2] is 29.1 µM [falling, single point].
As for `CN(C(=O)COC(=O)COc1ccc(Cl)cc1Cl)c1c(N)n(Cc2ccccc2)c(=O)[nH]c1=O`, the cell number change was -26.1%.
On to `CC(Cc1ccccc1)NC(=O)C1CCCNC1=O` (stereo unspecified), for which the cell number change is -21.9%. Under setting [1], the AC50 was 2.31 µM [falling, full curve, poor fit]. Besides, the AC50 under setting [2] is 1.64 µM [falling, full curve, poor fit].
`CN1CCN(C(=O)C2CCCN(S(=O)(=O)c3ccc(Br)cc3)C2)CC1` (stereo unspecified): the cell number change is 8.96%.
Regarding `COC(=O)c1nnn(-c2cccc(Cl)c2)c1C(=O)OC`, the cell number change turned out to be 33.1%. For the same molecule, the AC50 under setting [2] was 0.411 µM [rising, full curve, poor fit].
For `Cc1cccc(-n2c(CNC(=O)c3ccc(S(=O)(=O)N4CCCC4)cc3)n[nH]c2=S)c1`, the cell number change was -25.5%.
For `CCc1cccc(C)c1NC(=O)CCCN1C(=O)NC(C)(C)C1=O`, the cell number change is -1.55%. The AC50 under setting [2] is 29.1 µM [falling, partial curve, poor fit].
In the case of `O=C(O)C(C(=O)/C=C/c1ccco1)=C1SCCS1`, the cell number change worked out at 1.55%. The AC50 under setting [2] is 0.0651 µM [falling, full curve, poor fit].
With `COc1ccc(NS(=O)(=O)c2cc(OCC(N)=O)c(C)cc2Cl)cc1`, the AC50 under setting [2] is 29.1 µM [rising, single point].
With `Cc1cccn2c(=O)c(C=O)c(N3CCCCCC3)nc12`, the cell number change amounted to 3.1%. Under setting [1], the AC50 was 0.92 µM [rising, partial curve].
On to `Cc1cc2c(=O)n(C)c(SCC(=O)Nc3ccccc3)nc2s1`, for which the cell number change was 13.5%. For the same molecule, under setting [2], the AC50 was 0.58 µM [rising, full curve, poor fit].
For the molecule `O=C(c1ccco1)N1CCN(C(=O)c2cnn3cccnc23)CC1`, the cell number change was -40.4%. Moreover, under setting [1], the AC50 is 32.6 µM [falling, partial curve]. The AC50 under setting [2] is 0.231 µM [falling, partial curve, poor fit].
Regarding `CCN(CCCNS(=O)(=O)c1ccc2c(c1)CCN2C(C)=O)c1cccc(C)c1`, the AC50 under setting [1] was 0.092 µM [rising, single point].
For `CS(=O)(=O)N(CC(=O)NCc1ccc2c(c1)OCO2)c1ccc(Cl)cc1`, the cell number change is -7.65%. Also, under setting [1], the AC50 is 0.0326 µM [falling, full curve, poor fit]. The AC50 under setting [2] is 0.366 µM [rising, partial curve, poor fit].
Consider `COc1cc(OC)cc(C(=O)Nc2ccc(N(C)C)c3ccccc23)c1`, for which the cell number change was 6.3%.
Consider `CCOc1ccc(NC(=O)CSc2nc(NS(=O)(=O)c3ccc(C)cc3)cc(=O)[nH]2)cc1`, for which the cell number change was -0.806%.
In the case of `CSc1ccc(CN(C)CC(=O)Nc2c(F)cccc2F)cc1`, the cell number change is 16%. Further, under setting [1], the AC50 is 0.146 µM [falling, full curve, poor fit]. For the same molecule, under setting [2], the concentration at half-maximal activity (AC50) is 0.146 µM [falling, full curve, poor fit].
`O=C(Nc1ccc(Cl)cn1)C1CCCN(c2ncnc3c2nc2n3CCCCC2)C1` (stereo unspecified): under setting [2], the AC50 is 0.58 µM [rising, single point].
On to `O=C(NC1(C(F)(F)F)NC(=O)N(Cc2cccnc2)C1=O)c1cccs1` (stereo unspecified), for which the cell number change was 14.4%. The AC50 under setting [2] is 29.1 µM [rising, single point].
Take `O=c1c2ccccc2nc2c3ccccc3c(NCCN3CCOCC3)nn12`: the cell number change came to 39.4%. Besides, the AC50 under setting [1] was 1.3 µM [rising, full curve]. Moreover, the concentration at half-maximal activity (AC50) under setting [2] is 6.51 µM [rising, partial curve, poor fit].
For `Nc1ccc2oc3ccc(N)cc3c(=O)c2c1`, the cell number change came to 57.6%. For the same molecule, the concentration at half-maximal activity (AC50) under setting [1] was 2.91 µM [rising, full curve]. Under setting [2], the AC50 is 8.2 µM [rising, partial curve].
With `COc1ccc(N2CCN(CCCNC(=O)C(=O)c3c(C)[nH]c4ccccc34)CC2)cc1`, the cell number change worked out at 30.7%. For the same molecule, the AC50 under setting [1] is 16.4 µM [rising, single point].
On to `COc1ccc(NC(=O)CCS(=O)(=O)c2ccc(OC)cc2)cc1`, for which the cell number change turned out to be 101%. The AC50 under setting [1] is 18.4 µM [rising, partial curve]. In addition, under setting [2], the AC50 is 18.4 µM [rising, partial curve].
As to `CCCOC(=O)c1ccc(Oc2cn[nH]c2-c2ccc(OCC)cc2O)cc1`, the cell number change is -98.6%. Under setting [1], the AC50 is 10.3 µM [falling, partial curve]. Under setting [2], the AC50 was 32.6 µM [falling, single point].
As to `CCCN(C(=O)Cc1nc(N)n[nH]1)C1(C(=O)Nc2ccccc2C)CCCCC1`, the AC50 under setting [1] is 1.84 µM [falling, partial curve, poor fit].
